The values that follow come from paper doi:10.1101/581785.

Chains of the proteins cited; added tags and fusions are not shown. Lines headed by an entry give the natural chain unless they say otherwise; changes in a name come on top.
UniProt Q7Z2W4: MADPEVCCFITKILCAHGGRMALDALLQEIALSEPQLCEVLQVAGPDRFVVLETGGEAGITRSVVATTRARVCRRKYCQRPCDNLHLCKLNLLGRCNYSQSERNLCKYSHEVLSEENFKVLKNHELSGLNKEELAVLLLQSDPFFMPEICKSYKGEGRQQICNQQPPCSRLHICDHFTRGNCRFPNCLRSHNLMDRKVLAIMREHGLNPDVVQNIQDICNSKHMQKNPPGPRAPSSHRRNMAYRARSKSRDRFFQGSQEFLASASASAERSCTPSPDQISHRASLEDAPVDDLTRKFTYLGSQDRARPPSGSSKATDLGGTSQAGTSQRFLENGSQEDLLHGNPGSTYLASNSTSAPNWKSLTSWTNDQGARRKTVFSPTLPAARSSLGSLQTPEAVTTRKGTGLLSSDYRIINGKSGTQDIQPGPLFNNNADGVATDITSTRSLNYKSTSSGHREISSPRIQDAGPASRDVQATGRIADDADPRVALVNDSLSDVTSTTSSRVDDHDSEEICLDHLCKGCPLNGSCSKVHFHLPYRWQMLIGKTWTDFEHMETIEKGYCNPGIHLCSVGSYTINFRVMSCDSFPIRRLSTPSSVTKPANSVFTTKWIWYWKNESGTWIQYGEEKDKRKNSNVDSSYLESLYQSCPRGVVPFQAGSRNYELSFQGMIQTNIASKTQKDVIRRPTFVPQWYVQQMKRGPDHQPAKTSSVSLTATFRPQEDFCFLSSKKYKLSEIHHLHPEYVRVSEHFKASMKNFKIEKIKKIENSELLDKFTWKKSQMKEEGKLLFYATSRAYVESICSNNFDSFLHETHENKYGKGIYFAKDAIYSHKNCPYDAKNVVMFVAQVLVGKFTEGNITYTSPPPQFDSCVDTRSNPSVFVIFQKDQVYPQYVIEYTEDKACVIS
UniProt O15037: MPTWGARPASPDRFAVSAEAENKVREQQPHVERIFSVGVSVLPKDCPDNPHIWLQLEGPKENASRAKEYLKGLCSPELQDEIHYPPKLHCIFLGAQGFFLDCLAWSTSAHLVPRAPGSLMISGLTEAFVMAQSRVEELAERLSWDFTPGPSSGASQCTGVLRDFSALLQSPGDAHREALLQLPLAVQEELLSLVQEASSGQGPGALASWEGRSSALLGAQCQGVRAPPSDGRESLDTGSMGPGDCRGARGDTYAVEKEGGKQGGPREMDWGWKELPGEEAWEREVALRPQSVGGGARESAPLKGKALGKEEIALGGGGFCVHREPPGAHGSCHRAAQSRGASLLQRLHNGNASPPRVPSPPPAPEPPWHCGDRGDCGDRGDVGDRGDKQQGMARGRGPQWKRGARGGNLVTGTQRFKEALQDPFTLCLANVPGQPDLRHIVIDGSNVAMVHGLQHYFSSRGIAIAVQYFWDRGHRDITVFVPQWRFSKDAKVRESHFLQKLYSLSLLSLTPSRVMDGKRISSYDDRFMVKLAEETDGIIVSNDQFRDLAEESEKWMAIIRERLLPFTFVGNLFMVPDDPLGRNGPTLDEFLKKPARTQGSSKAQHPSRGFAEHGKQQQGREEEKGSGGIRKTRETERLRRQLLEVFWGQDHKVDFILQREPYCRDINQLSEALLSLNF
UniProt Q14258: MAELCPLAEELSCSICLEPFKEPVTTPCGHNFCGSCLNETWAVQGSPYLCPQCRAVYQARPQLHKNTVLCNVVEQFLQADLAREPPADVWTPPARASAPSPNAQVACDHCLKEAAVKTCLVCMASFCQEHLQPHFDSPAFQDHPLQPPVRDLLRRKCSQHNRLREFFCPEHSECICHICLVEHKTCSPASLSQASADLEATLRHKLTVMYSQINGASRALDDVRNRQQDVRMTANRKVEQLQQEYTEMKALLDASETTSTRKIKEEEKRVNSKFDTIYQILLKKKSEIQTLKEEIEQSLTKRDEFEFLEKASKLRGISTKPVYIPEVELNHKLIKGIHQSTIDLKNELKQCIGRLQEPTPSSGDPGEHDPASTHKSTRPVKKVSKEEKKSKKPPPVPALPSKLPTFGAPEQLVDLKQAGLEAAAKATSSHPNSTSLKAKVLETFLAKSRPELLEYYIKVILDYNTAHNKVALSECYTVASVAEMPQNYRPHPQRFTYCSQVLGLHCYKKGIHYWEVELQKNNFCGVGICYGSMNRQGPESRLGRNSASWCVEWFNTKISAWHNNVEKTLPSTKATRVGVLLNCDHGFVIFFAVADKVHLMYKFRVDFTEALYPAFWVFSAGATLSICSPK

These are yes or no findings as the source states them, for the method shown. Binding seen in cells or lysates may run through a third protein. Some results given as binding are weak or reduced against the parent protein; the word gives no strength.

In test [1] the target is ZAP-L, endogenous in HEK293T cells (human (endogenous in HEK293T)) (UniProt Q7Z2W4). In words: co-IP.
The target of another test is KHNYN-1-FLAG (human) (UniProt O15037). In words: co-IP.

Regarding “KHNYN-1-FLAG (from UniProt O15037 1-678)”, the binding entry in test [1] is “binds”.

Turning to “ZAP-L, endogenous in HEK293T cells (from UniProt Q7Z2W4-1 1-902)”, the binding result with KHNYN-1-FLAG (human) is recorded as “binds”.

Consider “TRIM25, endogenous in HEK293T cells (from UniProt Q14258 1-630)”, for which the binding result in the test with KHNYN-1-FLAG (human) is reported as “binds”.

Regarding HA-ZAP-L (from UniProt Q7Z2W4-1 1-902), the binding result with KHNYN-1-FLAG (human) is given as “binds”.
